Measured values: article PMC9068901 (Frontiers in Chemistry, 2022)

Columns and labels:
trypsin = test: Activity-based probe labelling of trypsin (SDS-PAGE, Western blot, streptavidin-HRP); type: binding; conditions: probe 50 μM, 30 min, 37°C
Protocol: Samples of recombinant protease (trypsin, human airway trypsin-like protease (HAT), matriptase, thrombin or neutrophil elastase, as indicated in the relevant figure legends) were treated with putative ABPs at a concentration of 50 μM, for 30 min, at 37°C. A control sample was prepared by treating recombinant protease with solvent control only. A further sample was prepared where Cbz-Arg^P(OPh)2 was added 30 min prior to the addition of the ABP under examination. […] All treated samples were then denatured with SDS-containing reducing treatment buffer (10 min at 95°C), followed by resolution by SDS-PAGE and subjected to Western blotting. Note, only stable covalent bonds between the ABP and protease active site would survive the harsh denaturing conditions involved in the resolution process. Resolved proteins were then transferred on to nitrocellulose membrane and labelled with streptavidin-HRP. The ABP-protease complex was then visualised following treatment with Luminata Forte HRP substrate.

[1] = general procedure: Fmoc solid-phase peptide synthesis; Fmoc-Lys(Mtt)-Wang resin (Bachem); Biotin-PEG NovaTag resin; DIC/HOBt; conditions: whole synthesis, TFA salt

N=C(N)NCCCN(CC(=O)NCC(=O)NCC(=O)NCCCOCCOCCOCCCNC(=O)CCCC[C@@H]1SC[C@@H]2NC(=O)N[C@@H]21)C(=O)ON1C(=O)CCC1=O [NAP858]
amount of trypsin giving excellent visual detection (trypsin): ≥ 200 ng

PfpOCO-NArg-Gly-Gly-Ahx-Lys(Biotin)-OH
crude mass ([1]; scale 0.08 mmol): 107.5 mg

SuOCO-NArg-Gly-Gly-Ahx-Lys(Biotin)-OH
crude mass ([1]; scale 0.1 mmol): 140 mg

SuOCO-NArg-Gly-Gly-Ahx-Lys-(Epb)-OH
crude mass ([1]; scale 0.1 mmol): 37.3 mg | crude yield ([1]; scale 0.1 mmol): 37%
